Results from publication PMC10562424.
No constants are given. Whether binding was seen depends on the method and setting. In cells and extracts the contact can be indirect. Some entries that bind do so weakly or less than the wild type.

By UniProt entry, the sequences of proteins in these tests, tags left out.
UniProt Q8N371: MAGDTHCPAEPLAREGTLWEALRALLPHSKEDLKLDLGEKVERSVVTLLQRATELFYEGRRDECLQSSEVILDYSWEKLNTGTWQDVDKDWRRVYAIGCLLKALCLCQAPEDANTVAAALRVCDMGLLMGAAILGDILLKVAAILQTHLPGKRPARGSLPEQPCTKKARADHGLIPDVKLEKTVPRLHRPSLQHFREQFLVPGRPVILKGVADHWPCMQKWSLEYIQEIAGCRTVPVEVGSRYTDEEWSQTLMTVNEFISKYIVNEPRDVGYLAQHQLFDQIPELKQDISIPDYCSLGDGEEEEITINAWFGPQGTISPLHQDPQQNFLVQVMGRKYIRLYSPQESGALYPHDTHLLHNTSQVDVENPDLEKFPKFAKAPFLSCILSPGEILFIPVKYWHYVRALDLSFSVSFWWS

Legend:
[1] = biological target: JMJD5 expressed in 293T cells (co-IP with HUWE1) (human) (UniProt Q8N371); experiment: co-IP; 293T cells; anti-Flag immunoprecipitation, coprecipitated proteins detected by Western blot
[2] = biological target: EGFR expressed in 293T cells (co-IP with HUWE1) (human) (UniProt P00533); experiment: as above

| binding [1] | binding [2] | Substance |
| --- | --- | --- |
| binds | binds | Full-length HUWE1 in 293T cells (from UniProt Q7Z6Z7 1-4374) (enzyme) |
| binds | binds | HUWE1 C-terminus (3551-4370 truncate containing HECT domain) (from UniProt Q7Z6Z7 3551-4370) (domain or fragment) |
